Measurements taken from PubChem BioAssay (NCATS).
Inconclusive means that the source gave no clear call. Such entries were picked first, then a sample of the others. For some of these results: A potency beside an inconclusive call is a rough fit, not a confirmed value. For some of these results: “Side channel” marks fits to a control or component signal instead of the main read-out. Calls of active or inactive are those of the source. Unless noted, the call rests on the fitted dose curve; in most records, active means well fitted curve in the direction sought with a large enough effect; inconclusive means small, poorly fitted or top-dose-only effect, or another doubt; inactive means no such curve, though single readings can be large; an effect the other way counts as inactive or inconclusive.

The chains behind the UniProt entries cited, without tags or fusion partners. Where a name states a change or a piece, a line headed by the entry shows the natural chain unless it says otherwise.
UniProt Q07343: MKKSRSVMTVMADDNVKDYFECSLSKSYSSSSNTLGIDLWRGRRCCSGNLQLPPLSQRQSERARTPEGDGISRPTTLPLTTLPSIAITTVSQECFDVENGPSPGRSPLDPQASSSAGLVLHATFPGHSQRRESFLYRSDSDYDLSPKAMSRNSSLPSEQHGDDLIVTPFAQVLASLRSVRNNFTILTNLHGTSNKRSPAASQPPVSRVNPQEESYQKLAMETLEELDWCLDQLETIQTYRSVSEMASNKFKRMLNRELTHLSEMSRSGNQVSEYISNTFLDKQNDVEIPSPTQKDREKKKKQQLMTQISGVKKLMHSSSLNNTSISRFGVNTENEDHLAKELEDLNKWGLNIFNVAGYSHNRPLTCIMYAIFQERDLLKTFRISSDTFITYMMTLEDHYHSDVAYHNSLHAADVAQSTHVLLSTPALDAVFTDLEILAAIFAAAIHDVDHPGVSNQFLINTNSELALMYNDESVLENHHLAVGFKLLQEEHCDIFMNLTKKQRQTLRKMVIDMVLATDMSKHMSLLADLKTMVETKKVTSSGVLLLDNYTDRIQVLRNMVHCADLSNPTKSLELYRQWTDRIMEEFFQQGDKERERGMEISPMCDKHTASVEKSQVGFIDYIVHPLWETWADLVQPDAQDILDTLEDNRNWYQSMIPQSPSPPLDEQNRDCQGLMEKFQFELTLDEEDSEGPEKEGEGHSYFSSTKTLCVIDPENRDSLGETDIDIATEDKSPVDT
UniProt P08684, whole entry, looked up: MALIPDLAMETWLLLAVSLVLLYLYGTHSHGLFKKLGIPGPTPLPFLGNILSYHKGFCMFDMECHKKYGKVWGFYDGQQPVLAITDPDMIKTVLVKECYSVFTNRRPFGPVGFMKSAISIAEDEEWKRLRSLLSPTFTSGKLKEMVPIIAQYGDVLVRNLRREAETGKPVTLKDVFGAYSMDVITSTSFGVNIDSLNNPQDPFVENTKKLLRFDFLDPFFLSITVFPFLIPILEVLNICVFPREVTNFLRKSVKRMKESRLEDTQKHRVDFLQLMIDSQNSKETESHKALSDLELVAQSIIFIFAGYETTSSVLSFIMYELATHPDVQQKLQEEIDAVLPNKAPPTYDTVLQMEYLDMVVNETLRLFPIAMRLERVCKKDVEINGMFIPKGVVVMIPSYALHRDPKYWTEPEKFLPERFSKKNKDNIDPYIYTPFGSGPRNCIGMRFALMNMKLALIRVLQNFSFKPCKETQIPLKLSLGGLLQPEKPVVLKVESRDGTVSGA
UniProt P10635, whole entry, looked up: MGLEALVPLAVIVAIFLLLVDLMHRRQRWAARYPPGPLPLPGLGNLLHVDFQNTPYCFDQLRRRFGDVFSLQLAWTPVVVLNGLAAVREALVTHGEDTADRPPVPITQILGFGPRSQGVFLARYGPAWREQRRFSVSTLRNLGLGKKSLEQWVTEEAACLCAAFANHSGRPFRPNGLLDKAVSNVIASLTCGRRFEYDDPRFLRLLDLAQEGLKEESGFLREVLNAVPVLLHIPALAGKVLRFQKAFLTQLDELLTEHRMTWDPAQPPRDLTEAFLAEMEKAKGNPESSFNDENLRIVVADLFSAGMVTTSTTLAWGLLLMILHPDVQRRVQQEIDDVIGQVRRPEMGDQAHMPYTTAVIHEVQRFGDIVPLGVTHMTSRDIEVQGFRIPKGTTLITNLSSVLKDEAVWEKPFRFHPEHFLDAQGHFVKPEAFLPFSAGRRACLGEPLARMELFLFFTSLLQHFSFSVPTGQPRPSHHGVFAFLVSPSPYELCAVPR
UniProt P11712, whole entry, looked up: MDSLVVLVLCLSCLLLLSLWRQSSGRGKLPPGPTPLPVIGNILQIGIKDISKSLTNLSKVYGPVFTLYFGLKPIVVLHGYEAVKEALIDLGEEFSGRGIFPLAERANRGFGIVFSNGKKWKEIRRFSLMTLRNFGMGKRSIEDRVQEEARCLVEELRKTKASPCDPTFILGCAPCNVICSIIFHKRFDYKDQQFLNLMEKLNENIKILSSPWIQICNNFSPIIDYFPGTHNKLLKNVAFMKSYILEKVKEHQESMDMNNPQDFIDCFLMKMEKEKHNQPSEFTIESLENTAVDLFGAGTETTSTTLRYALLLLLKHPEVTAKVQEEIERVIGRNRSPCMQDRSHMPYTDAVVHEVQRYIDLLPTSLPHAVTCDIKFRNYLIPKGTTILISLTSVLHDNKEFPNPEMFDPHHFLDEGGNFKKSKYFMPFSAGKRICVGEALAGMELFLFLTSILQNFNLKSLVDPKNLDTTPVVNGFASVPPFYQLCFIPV

What was measured:
[1] = Stat Signaling Pathway (AID 446; active means well fitted curve in either direction with a large enough effect, not every such curve was filed as active; inconclusive means small, poorly fitted or top-dose-only effect, or another doubt;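 further: ME-180 cervical cancer cells given 40 pM IL-6 alongside compound; SIE-controlled beta-lactamase reporter measured as 460/530 nm FRET emission ratio; on the % scale 0 is the no-effect control and ±100 the full control effect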); settings: ME-180 SIE beta-lactamase reporter, IL-6 stimulated, 5 h; at 7.69 µM (top of the series) unless noted
Summary of the method: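 Normalization used AC90 stimulation (300 pM IL-6) and AC90 inhibition (125 nM pan-JAK inhibitor at 40 pM IL-6). The underlying signal is SIE-driven beta-lactamase in ME-180 cells after 5 h IL-6 exposure with compound.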

[2] = target: Mitogen-activated protein kinase 10 (Mus musculus) (UniProt Q61831); assay: JNK3 AlphaScreen Assay (AID 530; active means well fitted curve in either direction with a large enough effect, not every such curve was filed as active; inconclusive means small, poorly fitted or top-dose-only effect, or another doubt;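 further: kinase came from lysate of stimulated human HepG2 cells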; further: potency means the concentration at half of the fitted maximal effect;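 on activity change, negative = inhibition: signal reports phosphorylation of biotinylated GST-cJun 1-79 at Ser73 with 10 µM ATP; on the % scale 0 is the no-effect control and ±100 the full control effect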); settings: JNK3 lysate, c-Jun phosphorylation; activity change, negative = inhibition: at 57.1 µM (top of the series)
Summary of the method: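 Activity was read by AlphaScreen after JNK3-containing HepG2 lysate (cytokine pre-activated) phosphorylated biotinylated GST-cJun with 10 uM ATP at room temperature. Phospho-Ser73 cJun antibody with Protein-A acceptor beads provided detection.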

[3] = target: 3',5'-cyclic-AMP phosphodiesterase 4B (Homo sapiens) (UniProt Q07343); assay: qHTS Assay for Inhibitors of PDE-IV (AID 607; active means well fitted activation curve with a large enough effect in the main read-out, with a control signal flat, not every such curve was filed as active; inconclusive means small, poorly fitted or top-dose-only effect, or effect the other way, or a change in a side signal; further: potency means the concentration at half of the fitted maximal effect); settings: HEK293 ACTOne CNG channel cells, membrane potential fluorescence; activation (PDE inhibition): at 22.9 µM (top of the series)
Summary of the method: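 HEK293 ACTOne cells with CNG channel (1000/well), endogenous PDE4; membrane potential dye, compounds up to 22.9 uM final. Fluorescence Ex 535/Em 590; RO 20-1724 (100 uM final) as reference.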

[4] = Primary qHTS for small molecule stabilizers of the endoplasmic reticulum resident proteome: Secreted ER Calcium Modulated Protein (SERCaMP) assay (AID 1508630); settings: SH-SY5Y GLuc-SERCaMP (Gaussia luciferase released on ER calcium loss) secretion, thapsigargin, luminescence; activity change, negative = inhibition: at 38.4 µM (top of the series) unless noted; further: potency means the concentration at half of the fitted maximal effect; on activity change, negative = inhibition: on the % scale 0 is the no-effect control and ±100 the full control effect
Summary of the method: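 The SH-SY5Y reporter protocol was run at 3 concentrations up to 38.3 uM (primary) or 11 concentrations (follow-up): 16 h compound, 100 nM thapsigargin for 4 h, then extracellular luciferase luminescence.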

[5] = qHTS Assay for Identification of Small Molecule Agonists for Hypoxia Response Element Signaling Pathway (AID 914; active means well fitted activation curve with a large enough effect in the signal ratio, with a control signal flat, not every such curve was filed as active; inconclusive means small, poorly fitted or top-dose-only effect, or effect the other way, or a change in a side signal; the % refers to the signal ratio; further: potency means the concentration at half of the fitted maximal effect; on activation: % of control where 0% means no effect); settings: ME-180 HRE-bla reporter, beta-lactamase ratio, CoCl2, 17 h; activation: stronger effect = higher value
Summary of the method: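 ME-180 cells carrying an HRE-driven beta-lactamase reporter were treated with compounds in a titration series plus an EC50 level of CoCl2 for 17 h at 37 degrees Celsius; CCF4 readout as the 460nm/530nm ratio gave AC50 values.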

[6] = NFAT Signaling Pathway (AID 444; active means well fitted curve in either direction with a large enough effect, not every such curve was filed as active; inconclusive means small, poorly fitted or top-dose-only effect, or another doubt;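 further: carbachol stimulus at about its EC50 of 1 µM final; on the % scale 0 is the no-effect control and ±100 the full control effect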); settings: Jurkat NFAT-bla M1, carbachol, beta-lactamase ratio, 5 h; at 7.69 µM (top of the series) unless noted
Summary of the method: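 Jurkat cells with NFAT-driven β-lactamase reporter and co-expressed M1 receptor, stimulated with carbachol (final 1 uM, ~EC50), compound titration, 5 h at 37 °C. CCF4 loaded 1 h at RT; 460/530 nm ratio gave %activity and AC50.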

[7] = target: Cytochrome P450 3A4 (Homo sapiens) (UniProt P08684); assay: qHTS Assay for Inhibitors and Substrates of Cytochrome P450 3A4 (AID 884); settings: recombinant CYP3A4, Luciferin-PPXE luminescence; activity change, negative = inhibition: at 57.1 µM (top of the series); further: potency means the concentration at half of the fitted maximal effect; nearly all actives have a fitted effect of over 50% in size
Summary of the method: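 Luminescent readout of luciferin produced by CYP3A4 (20 nM) dealkylation of Luciferin-PPXE, 25 uM (its KM). NADPH-driven reaction ran 60 min at RT after 10 min compound preincubation; data scaled to 57 uM ketoconazole as 100% inhibition.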

[8] = target: Cytochrome P450 3A4 (Homo sapiens) (UniProt P08684); assay: qHTS Assay for Activators of Cytochrome P450 3A4 (AID 885); further: potency means the concentration at half of the fitted maximal effect; nearly all actives have a fitted effect of over 65% in size
Summary of the method: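 Human CYP3A4 dealkylates Luciferin-PPXE to luciferin, which luciferase detection converts to light. Substrate was at its KM (25uM), buffer 200mM KPO4, reaction 60 min at RT.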

[9] = target: Cytochrome P450 2D6 (Homo sapiens) (UniProt P10635); assay: qHTS Assay for Inhibitors and Substrates of Cytochrome P450 2D6 (AID 891); further: nearly all actives have a fitted effect of over 60% in size; further: potency means the concentration at half of the fitted maximal effect
Summary of the method: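 Luminescent read-out of luciferin formed by 5 nM human CYP2D6 demethylating 30 uM Luciferin-ME EGE (Km level) over 60 min at room temperature after NADPH regeneration addition. Data normalized to full inhibition by 1.43 uM quinidine.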

[10] = target: Cytochrome P450 2C9 (Homo sapiens) (UniProt P11712); assay: qHTS Assay for Inhibitors and Substrates of Cytochrome P450 2C9 (AID 883); further: on the % scale 0 is the no-effect control and ±100 the full control effect; nearly all actives have a fitted effect of over 60% in size
Summary of the method: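 Human CYP2C9 (10nM) with Luciferin-H at 100uM (its KM) in 25mM KPO4; compound preincubated 10 min at 37C, then NADPH regeneration for 60 min at 37C. Luciferin read by luminescence after detection reagent; normalized to 57uM sulphaphenazole as full inhibition.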

SMILES: O=c1c(-c2cccc(F)c2)nc2cncnc2n1Cc1ccccc1
- activity, negative = inhibition [1]: inactive: -8.08%
- Potency [2]: inconclusive: 12.6 µM [inhibitor, partial curve]
- Potency [3]: inconclusive: 12.6 µM [activator, partial curve]
- Potency [4]: inactive

SMILES: CCNc1ncc2nc(-c3cn(C)c4ccccc34)c(=O)n(Cc3ccc(F)cc3)c2n1
- activity, negative = inhibition [1]: inconclusive: 37.6% [activator]
- Potency [2]: inactive
- Potency [5]: active: 2.51 µM
- Potency [4]: inactive

SMILES: O=c1c(-c2cc(F)cc(F)c2)nc2cnc(Oc3ccccc3)nc2n1C[C@H]1CCCO1
- activity change, negative = inhibition [6]: inactive: -1.84%
- activation [5]: inactive: 3.51%
- Potency [4]: inconclusive: 10 µM [inhibitor, single point]

SMILES: CC(C)CN1CC2(CCN(S(=O)(=O)c3ccccc3)CC2)C1
- activity change, negative = inhibition [6]: inconclusive: -51.2% [inhibitor]
- activation [5]: inactive: 6.29%
- Potency [4]: inactive

SMILES: Cc1nc2cnc(N3CCNCC3)nc2n(-c2ccccc2)c1=O
- activity, negative = inhibition [1]: inconclusive: 4.89% [inhibitor]
- Potency [4]: inconclusive: 35.5 µM [inhibitor, partial curve, poor fit]

SMILES: COCC(=O)N1CCC2(CC1)CN(Cc1ccc(C#N)cc1)C2
- activity, negative = inhibition [1]: inconclusive: -34.4% [inhibitor]
- Potency [4]: inactive

SMILES: N#CCCn1c(=O)c(-c2ccccc2)nc2cnc(OCc3ccccc3)nc21
- activity change, negative = inhibition [6]: inconclusive: 84.2% [inhibitor]
- Potency [7]: inconclusive: 7.94 µM [inhibitor, partial curve]
- Potency [4]: inconclusive: 25.1 µM [inhibitor, single point]

SMILES: Cc1cccc(CNc2ccnc(-c3ccccc3CN(C)C)n2)c1
- activity, negative = inhibition [1]: inactive: -5.22%
- Potency [3]: inconclusive: 5.01 µM [rising, partial curve]
- Potency [7]: inconclusive: 3.98 µM [inhibitor, partial curve]
- Potency [4]: inconclusive: 28.2 µM [inhibitor, single point]

SMILES: Cn1c(=O)c(-c2ccc(Cl)cc2)nc2cnc(Oc3cccc(Cl)c3)nc21
- activity change, negative = inhibition [6]: inactive: -6.5%
- Potency [8]: inconclusive: 3.98 µM [activator, full curve]
- activation [5]: inconclusive: -1.84%
- Potency [4]: inactive

SMILES: COc1ccc(Oc2ncc3nc(-c4cc(F)cc(F)c4)c(=O)n(C)c3n2)cc1
- activity, negative = inhibition [1]: inconclusive: 30.3% [activator]
- Potency [3]: inconclusive: 1.26 µM [activator, partial curve]
- Potency [5]: inconclusive: 3.16 µM [activator, single point]
- Potency [4]: inconclusive: 5.01 µM [inhibitor, partial curve, poor fit]

SMILES: COc1ncc2nc(-c3cccs3)c(=O)n(Cc3ccc(F)cc3)c2n1
- activity, negative = inhibition [1]: inconclusive: 47.7% [activator]
- Potency [9]: inconclusive: 0.398 µM [inhibitor, full curve]
- Potency [5]: inconclusive: 5.01 µM [activator, single point]
- Potency [4]: inactive

SMILES: COc1cccc(-c2cncnc2NCCN2CCOCC2)c1
- activity change, negative = inhibition [6]: inconclusive: -46.8% [inhibitor]
- Potency [7]: inconclusive: 3.16 µM [inhibitor, full curve]
- Potency [5]: active: 2.51 µM
- Potency [4]: inconclusive: 28.2 µM [inhibitor, single point]

SMILES: N#Cc1cccc(NC(=O)N2CCCC3(CCN(C(=O)c4ccco4)CC3)C2)c1
- activity change, negative = inhibition [6]: inconclusive: -65.7% [inhibitor]
- activation [5]: inconclusive: -41.9%
- Potency [4]: inactive

SMILES: CNc1ncnc2ccc(-c3ccccc3OC)cc12
- activity, negative = inhibition [1]: inactive: -15.7%
- Potency [4]: inconclusive: 8.91 µM [inhibitor, partial curve, poor fit]

SMILES: N#CCCn1c(=O)c(-c2ccc(Cl)cc2)nc2cnc(Oc3cccc(Cl)c3)nc21
- activity, negative = inhibition [1]: inconclusive: 53.8% [activator]
- Potency [5]: inconclusive: 5.01 µM [fluorescent, side channel, single point]
- Potency [4]: inconclusive: 2 µM [inhibitor, full curve]

SMILES: COc1ccccc1-c1nc(NCCNC(C)=O)c2ccccc2n1
- activity change, negative = inhibition [6]: inconclusive: 280% [activator]
- Potency [9]: active: 6.31 µM
- activation [5]: inactive: -0.258%
- Potency [4]: inactive

SMILES: Cc1nc2cnc(Oc3ccccc3)nc2n(-c2ccccc2)c1=O
- activity, negative = inhibition [1]: inactive: -3.48%
- Potency [4]: inactive

SMILES: O=C(Nc1ccccc1)N1CCCC2(CCN(S(=O)(=O)c3ccccc3)CC2)C1
- activity change, negative = inhibition [6]: inconclusive: -40.9% [inhibitor]
- Potency [7]: inconclusive: 5.01 µM [inhibitor, partial curve]
- Potency [4]: inactive

SMILES: COc1ccc(-n2c(=O)c(-c3cccs3)nc3cnc(Oc4ccccc4)nc32)cc1
- activity, negative = inhibition [1]: inconclusive: 33.7% [activator]
- Potency [5]: inconclusive: 5.01 µM [fluorescent, side channel, single point]
- Potency [4]: inconclusive: 25.1 µM [inhibitor, single point]

SMILES: CS(=O)(=O)N1CCC2(CC1)CN(C(=O)Nc1ccccc1)C2
- activity, negative = inhibition [1]: inactive: 8.65%
- Potency [4]: inactive

SMILES: CC(C)NC(=O)N1CC[C@@]2(CCCN(C(=O)Oc3ccccc3)C2)C1
- activity, negative = inhibition [1]: inactive: -4.24%
- Potency [10]: inactive
- Potency [9]: inactive
- Potency [4]: inactive
